The results in this text go back to WO2017208210A1.

This assay has as its target T1, human MCAM expressed on CHO cells transfected with the full length human MCAM gene (human) (UniProt P43121).
T1 sequence: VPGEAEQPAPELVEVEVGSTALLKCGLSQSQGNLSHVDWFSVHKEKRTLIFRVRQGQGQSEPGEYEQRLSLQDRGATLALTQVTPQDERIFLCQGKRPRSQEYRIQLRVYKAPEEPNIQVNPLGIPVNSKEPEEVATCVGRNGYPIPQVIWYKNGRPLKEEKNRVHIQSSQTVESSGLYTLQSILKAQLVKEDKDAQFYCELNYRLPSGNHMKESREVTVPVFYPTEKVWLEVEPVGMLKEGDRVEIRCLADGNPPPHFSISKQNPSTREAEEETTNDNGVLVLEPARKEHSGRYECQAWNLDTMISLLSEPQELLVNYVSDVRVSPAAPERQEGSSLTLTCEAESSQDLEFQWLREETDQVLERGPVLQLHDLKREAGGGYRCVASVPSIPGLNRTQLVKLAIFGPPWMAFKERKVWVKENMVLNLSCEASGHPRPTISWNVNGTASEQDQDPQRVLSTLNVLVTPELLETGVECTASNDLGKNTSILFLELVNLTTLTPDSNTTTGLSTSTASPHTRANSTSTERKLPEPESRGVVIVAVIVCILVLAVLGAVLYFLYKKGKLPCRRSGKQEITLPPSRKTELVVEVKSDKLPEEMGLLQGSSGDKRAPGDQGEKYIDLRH
The assay is described as follows: cells expressing human MCAM.

No constants are given. Whether binding was seen depends on the method and setting. Some results given as binding are weak or reduced against the parent protein; the word gives no strength.

B1: rat anti-human MCAM monoclonal antibody clone 2107.4.10 (antibody, V domains shown)
VH: QVQLKESGPGLVQSSQTLSLTCTVSGFSLTSNGVSWVRQPPGKGLEWIAAISSGGSTYYNSAFKSRLSISRNTSKSQVLLKMNSLQTEDTGMYFCARHRPFYFDYWGQGVMVTVSS
VL: DIRVTQSPSLLSASVGDRVTLNCKGSQNIYKSLAWFRLKRGEAPKLLIYDANSLQTGIPSRFSGSGSGTDFTLTITSLQPEDVATYFCQQYYSGYTFGAGTKLELK
As for B1, the binding entry was “binds”.
